{
  "source": "ChEMBL document CHEMBL1140759",
  "about": "“Synthesis, anti-Toxoplasma gondii and antimicrobial activities of benzaldehyde 4-phenyl-3-thiosemicarbazones and 2-[(phenylmethylene)hydrazono]-4-oxo-3-phenyl-5-thiazolidineacetic acids” (Bioorg Med Chem, 2008)",
  "system": "Candida albicans",
  "assay": "Antimicrobial activity against Candida albicans at 100 ug/disc",
  "assay_type": "functional, organism-based",
  "data": [
    {"sequence": "NYSTATIN", "values": [
      {"measurement": "inhibition zone (IZ)", "result": 26, "unit": "mm"}
    ]}
  ]
}
